Chains of the proteins cited; added tags and fusions are not shown. Lines headed by an entry give the natural chain unless they say otherwise; changes in a name come on top.
UniProt P11473: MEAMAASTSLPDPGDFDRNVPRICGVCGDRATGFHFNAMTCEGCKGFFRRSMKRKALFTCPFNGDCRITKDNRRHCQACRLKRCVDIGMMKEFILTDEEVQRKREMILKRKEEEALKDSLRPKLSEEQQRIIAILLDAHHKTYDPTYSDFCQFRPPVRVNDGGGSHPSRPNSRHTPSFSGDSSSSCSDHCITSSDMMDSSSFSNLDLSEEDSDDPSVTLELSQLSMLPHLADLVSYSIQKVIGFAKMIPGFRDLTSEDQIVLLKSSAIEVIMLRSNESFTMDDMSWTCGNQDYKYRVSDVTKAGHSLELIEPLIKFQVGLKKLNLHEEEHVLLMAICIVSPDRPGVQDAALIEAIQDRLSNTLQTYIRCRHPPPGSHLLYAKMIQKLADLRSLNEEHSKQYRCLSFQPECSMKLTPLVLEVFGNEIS

The whole screen tested about 400,000 compounds, of which about 3,700 (0.93%) were called active. This list was built around the results that the source calls inconclusive (neither active nor inactive); the mix of calls is not that of the screen. Calls follow the shape of the dose curve; as a rule, active = well fitted inhibition curve with a large enough effect; inconclusive = small, poorly fitted or top-dose-only effect, or another doubt; inactive = no such curve, though single readings can be large or run the other way. Potencies of inconclusive entries are doubtful fits and often do not repeat. Where a SMILES comes first, the peptide text is derived from it. [ ]: non-standard residue; d: D form. Abu = CC[C@H](N)C(=O)O
The molecules below were run against Vitamin D3 receptor (Homo sapiens) (UniProt P11473) (assay: Inhibitors of the vitamin D receptor (VDR): qHTS). Settings: VDR-SRC2-3 peptide fluorescence polarization, 2 h; max response, negative = inhibition: stronger effect = lower value.
How it was run: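 The screen uses fluorescence polarization to detect compounds that interfere with recruitment of the SRC2-3 coactivator peptide to VDR; plates are read after 2 h at room temperature.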
`Brc1ccccc1CN1CCN(Cc2c[nH]c3ccccc23)CC1` was tested, and the max response, negative = inhibition was inactive: -6.4%.
For `O=[N+]([O-])c1cc2c(cc1C=Nc1ccccc1)OCO2`, the Potency was inconclusive: 89.1 µM [inhibitor, single point].
`CCc1ccc(-c2nc(NC(=O)c3ccc(OCC(=O)Nc4ccc(F)cc4)c(OC)c3)sc2C)cc1` was tested, and the Potency was inconclusive: 39.8 µM [inhibitor, single point].
`CC[C@H](NC(=O)[C@H](CCCN=C(N)N)NC(=O)[C@H](Cc1c[nH]c2ccccc12)NC(=O)[C@@H](N)CS)C(=O)N[C@@H](CCCN=C(N)N)C(=O)N[C@@H](Cc1ccc(O)cc1)C(N)=O` (H-CWR[Abu]RY-NH2) was tested, and the Potency was active: 39.8 µM.
In the case of `Cc1ccc(S(=O)(=O)NCCc2nnc3ccc(SCC(=O)Nc4ccc(F)cc4F)nn23)cc1`, the max response, negative = inhibition was inactive: 10.6%.
In the case of `NCCc1c(C(=O)O)[nH]c2ccc([N+](=O)[O-])cc12`, the Potency was inconclusive: 20 µM [inhibitor, partial curve, poor fit].
`O=C(c1cccnc1)N(Cc1ccccc1)C(=O)c1cccnc1` was tested, and the max response, negative = inhibition was inactive: -6.19%.
With `CCCN1C(=O)S/C(=C\c2ccc(N3CCOCC3)o2)C1=O` the Potency was active: 31.6 µM.
`COc1ccc(/C=N/NC(=O)Cn2cnc3c2c(=O)n(C)c(=O)n3C)cc1` was tested, and the max response, negative = inhibition was inactive: 8.8%.
In the case of `Cc1ccc2cc(CCNC(=O)c3ccco3)c(=O)[nH]c2c1`, the max response, negative = inhibition was inactive: 16.8%.
With `N=c1sccn1CC(=O)NCCc1ccc(Cl)cc1` the Potency was inconclusive: 89.1 µM [inhibitor, partial curve, poor fit].
In the case of `COc1cc2c(cc1OC)C(/C=C/c1ccc(OC)c(OC)c1OC)=NCC2`, the Potency was active: 50.1 µM.
With `O=C(NCCO)c1ccc2nc(-c3ccco3)c(-c3ccco3)nc2c1` the Potency was active: 35.5 µM.
`Cn1c(=O)c2[nH]c(=S)n(Cc3ccccc3)c2n(C)c1=O` was tested, and the Potency was inconclusive: 39.8 µM [inhibitor, single point].
With `COc1cc(/C=C/C(=O)Nc2nnc(CC(C)(C)C)s2)cc(OC)c1OC` the Potency was active: 79.4 µM.
In the case of `COc1ccc(-c2noc(CNC(=O)COc3cccc(C)c3C)n2)cc1`, the max response, negative = inhibition was inactive: 7.55%.
For `CCOC(=O)C(CC)Sc1nc2c(c(=O)[nH]c(=O)n2C)n1C/C=C(/C)Cl` (centres undefined), the Potency was active: 31.6 µM.
`CCCOc1ccccc1OCC(=O)N1CCN(S(=O)(=O)c2ccc(Cl)cc2)CC1` was tested, and the Potency was inconclusive: 89.1 µM [inhibitor, single point].
With `O=C(O)[C@H]1CC=C[C@H]2CCN(Cc3ccc(Cl)c(Cl)c3)C(=O)[C@@H]12` the Potency was inconclusive: 89.1 µM [inhibitor, partial curve].
With `CCOc1cc(C(=O)NC(=S)Nc2ccc(Cl)c(C(=O)O)c2)cc(OCC)c1OCC` the max response, negative = inhibition was inactive: 11%.
For `Cc1ccc(-n2c(N)c(C(N)=O)sc2=S)cc1`, the Potency was active: 70.8 µM.
For `Cc1cc(Cl)c2oc(C(=O)N(C)C3CCOC3)c(C)c2c1` (centres undefined), the Potency was inconclusive: 31.6 µM [inhibitor, partial curve, poor fit].
For `Cc1ccccc1/C=C/C(=O)c1ccc([N+](=O)[O-])o1`, the Potency was active: 7.94 µM.
For `O=S1(=O)Nc2c(cc(Cl)c3ccc(Cl)nc23)-c2ccccc21`, the max response, negative = inhibition was inactive: -4.39%.
With `CN1CCN(C(c2ccc(F)cc2)c2nnnn2Cc2cccs2)CC1` (centres undefined) the max response, negative = inhibition was inactive: 11.5%.
`O=C1CNC(=S)N1CCc1ccc(O)c(O)c1` was tested, and the max response, negative = inhibition was inactive: 10.6%.
`Cc1cc(Cl)cc(C)c1OCC(=O)O` was tested, and the Potency was inconclusive: 0.631 µM [inhibitor, full curve, poor fit].
In the case of `Cn1c(=O)c2c(nc(SCC(=O)Nc3ccc(F)c(F)c3)n2Cc2ccccc2F)n(C)c1=O`, the max response, negative = inhibition was inactive: 7.77%.
`CC(=O)Nc1ccc(SCC(c2ccccc2)N2CCN(CC(C)C)CCC2=O)cc1` (centres undefined) was tested, and the Potency was inconclusive: 79.4 µM [inhibitor, partial curve, poor fit].
`CC1(C)CC(NC(=S)NC(=O)c2cc(Br)ccc2Cl)CC(C)(C)N1` was tested, and the Potency was inconclusive: 50.1 µM [inhibitor, partial curve, poor fit].
For `CCCOc1ccc(N2C(=O)CC(SCCc3nc4ccccc4[nH]3)C2=O)cc1` (centres undefined), the Potency was inconclusive: 89.1 µM [inhibitor, partial curve, poor fit].
In the case of `CCc1c(C)nc2c(Br)cccc2c1SCCC#N`, the Potency was inconclusive: 89.1 µM [inhibitor, single point].
In the case of `Cc1ccc(C)c(N2CCN(C(=S)Nc3ccc4nc(N5CCN(C)CC5)cc(C)c4c3)CC2)c1`, the max response, negative = inhibition was inactive: 28.9%.
With `Cc1cccc(-c2nn(C(=S)Nc3ccccc3)cc2-c2ccnc3ccccc23)n1` the Potency was inconclusive: 89.1 µM [inhibitor, single point].
For `O=[N+]([O-])/C=C/c1cn(Cc2ccccc2)c2ccccc12`, the Potency was active: 14.1 µM.
For `Cc1nn(C)c(Sc2ccccc2N)c1[N+](=O)[O-]`, the Potency was inconclusive: 25.1 µM [inhibitor, partial curve, poor fit].
For `CSc1nn(Cc2ccc(F)cc2)c(N(C(C)=O)C(C)=O)c1S(=O)(=O)c1ccccc1`, the Potency was inconclusive: 89.1 µM [inhibitor, single point].
`COc1cccc(CNC(=O)C2CCCN(c3nnc(-n4c(C)ccc4C)s3)C2)c1OC` (centres undefined) was tested, and the max response, negative = inhibition was inactive: 0.157%.
With `CN(C)C=Nc1ncc2c3ccccc3n(CCN(C)C)c2c1C#N` the max response, negative = inhibition was inactive: -4.36%.
`CSc1nc2c(cc1C#N)CCCCC2` was tested, and the Potency was inconclusive: 70.8 µM [inhibitor, single point].
`COc1ccc(CNc2ncncc2-c2ccc(N(C)C)cc2)c(OC)c1` was tested, and the Potency was inconclusive: 50.1 µM [inhibitor, partial curve].
With `CCc1c(C)nc2ncnn2c1NCCc1ccc(OC)c(OC)c1` the max response, negative = inhibition was inactive: 13.2%.
In the case of `CCC(/C=C1\Sc2ccc(OC)cc2N1CC)=C\c1sc2ccc(OC)cc2[n+]1CCCS(=O)(=O)[O-]`, the Potency was inconclusive: 39.8 µM [inhibitor, single point].
`O=C(NC(=S)Nc1ccc(Oc2ccc(Cl)cc2)cc1)c1ccccc1` was tested, and the max response, negative = inhibition was inactive: 37.1%.
For `COc1ccc(/C=C/C(=O)c2c(O)ccc3c(C)cc(=O)oc23)cc1`, the Potency was inconclusive: 17.8 µM [inhibitor, full curve, poor fit].
For `CCN(C1CCCCC1)S(=O)(=O)c1ccc(S(=O)(=O)N(CC(=O)Nc2ccccc2)C2CC2)cc1`, the max response, negative = inhibition was inactive: 5.98%.
In the case of `Clc1ccc(C2[C@H]3CN(CC4CCCCC4)[C@H](c4ccccc4)C34CC2(c2ccccc2)C4)cn1` (some centres undefined), the max response, negative = inhibition was inactive: -20.5%.
In the case of `COc1ccc(NCc2nn(CC(=O)c3ccc(Br)cc3)c3[n+]2CCCCC3)cc1`, the max response, negative = inhibition was inactive: -20.3%.
In the case of `Nc1c(C(=O)N2CCOCC2)sc(=S)n1-c1ccccc1`, the Potency was active: 50.1 µM.
In the case of `CCOC(=O)c1cc(-c2ccc(/C=C3/C(=O)NC(=O)C(C#N)=C3C)o2)ccc1Cl`, the Potency was inconclusive: 20 µM [inhibitor, full curve, poor fit].
`O=C(CSc1ccc(-c2ccco2)nn1)Nc1ccc(F)cc1` was tested, and the Potency was inconclusive: 89.1 µM [inhibitor, single point].
For `C[C@H](NC(=O)N1CCn2c1nc1ccccc12)C(=O)N1CCCCC1`, the Potency was inconclusive: 31.6 µM [inhibitor, single point].
For `O=C1C=CC2C(c3ccc4c(c3)OCO4)CC1N2Cc1ccccc1` (centres undefined), the Potency was inconclusive: 63.1 µM [inhibitor, partial curve, poor fit].
In the case of `O=C(CN1CCOc2ccccc21)N1CCCC1`, the Potency was inconclusive: 10 µM [inhibitor, partial curve, poor fit].
`CC(C)Oc1ccc(S(=O)(=O)N2CCOCC2)cc1NC(=O)C1CCCCC1` was tested, and the Potency was inconclusive: 100 µM [inhibitor, single point].
In the case of `Cc1cc(S(=O)(=O)N2CCOCC2)ccc1OCC(=O)Nc1cccc(F)c1`, the Potency was inconclusive: 35.5 µM [inhibitor, partial curve].
In the case of `O=C(Cn1ncc2c3ccccc3n(Cc3ccccc3)c2c1=O)NCCc1ccc(Cl)cc1`, the max response, negative = inhibition was inactive: 11.8%.
`CCC(C)[C@H](NC(=O)NCCC1=CCCCC1)C(=O)O` (some centres undefined) was tested, and the Potency was inconclusive: 35.5 µM [inhibitor, single point].
`CC1(OC(=O)C2CCCC2)C(=O)C=C2C=C(c3ccsc3)OC=C2C1=O` (centres undefined) was tested, and the Potency was inconclusive: 89.1 µM [inhibitor, single point].
With `CC(Oc1ccc2c3c(c(=O)oc2c1)CCC3)C(=O)N[C@@H](Cc1ccccc1)C(=O)O` (some centres undefined) the Potency was inconclusive: 79.4 µM [inhibitor, partial curve, poor fit].
In the case of `CCCCOC(=O)c1ccc(NC(=O)CSC2=Nc3ccccc3C3CC=NN23)cc1` (centres undefined), the Potency was inconclusive: 79.4 µM [inhibitor, single point].
For `CNc1nc(-c2ccccc2)[n+](-c2ccc(C)cc2)s1`, the Potency was inconclusive: 20 µM [inhibitor, full curve, poor fit].
In the case of `O=C(O)c1ccc(Cn2cc(/C=C\[N+](=O)[O-])c3ccccc32)o1`, the Potency was active: 12.6 µM.
For `NNC(=O)c1cccc(COc2cccc(Br)c2)c1`, the Potency was inconclusive: 70.8 µM [inhibitor, partial curve, poor fit].
With `O=C(O)CCn1c(SCc2ccccc2)nc2ccccc21` the max response, negative = inhibition was inactive: -8.81%.
With `CN(Cc1nc(-c2ccccc2)no1)C1CCOCC1` the max response, negative = inhibition was inactive: -19.7%.
`CC(=O)C1C(c2ccc(F)cc2)C2C(C)=NN=C2CC1(C)O` (centres undefined) was tested, and the Potency was inconclusive: 70.8 µM [inhibitor, single point].
`CCCc1cc(=O)[nH]c(SCC(=O)N(C)CC(=O)Nc2ccccc2CC)n1` was tested, and the Potency was inconclusive: 39.8 µM [inhibitor, single point].
In the case of `CCn1c(CN2CCN(c3cccc(C)c3C)CC2)n[nH]c1=S`, the Potency was inconclusive: 79.4 µM [inhibitor, single point].
% is scaled to controls: 0 for no effect and ±100 for the full control effect; potency is read from the fitted curve at half-maximal effect.
